According to paper PMC7476715:

Target: full-length rat SI-SII-SIII-IP3R1 (rat)
Test: co-IP; lysates of HEK293FT cells transfected with IP3R1 and FLAG-tagged Caspr2 JXM, immunoprecipitation with anti-IP3R1 antibody, immunoblotting

B1: FLAG-tagged Caspr2 JXM (domain or fragment, UniProt Q9UHC6 592-1257)
chain: NSIYEPSCEAYKHLGQTSNYYWIDPDGSGPLGPLKVYCNMTEDKVWTIVSHDLQMQTPVVGYNPEKYSVTQLVYSASMDQISAITDSAEYCEQYVSYFCKMSRLLNTPDGSPYTWWVGKANEKHYYWGGSGPGIQKCACGIERNCTDPKYYCNCDADYKQWRKDAGFLSYKDHLPVSQVVVGDTDRQGSEAKLSVGPLRCQGDRNYWNAASFPNPSSYLHFSTFQGETSADISFYFKTLTPWGVFLENMGKEDFIKLELKSATEVSFSFDVGNGPVEIVVRSPTPLNDDQWHRVTAERNVKQASLQVDRLPQQIRKAPTEGHTRLELYSQLFVGGAGGQQGFLGCIRSLRMNGVTLDLEERAKVTSGFISGCSGHCTSYGTNCENGGKCLERYHGYSCDCSNTAYDGTFCNKDVGAFFEEGMWLRYNFQAPATNARDSSSRVDNAPDQQNSHPDLAQEEIRFSFSTTKAPCILLYISSFTTDFLAVLVKPTGSLQIRYNLGGTREPYNIDVDHRNMANGQPHSVNITRHEKTIFLKLDHYPSVSYHLPSSSDTLFNSPKSLFLGKVIETGKIDQEIHKYNTPGFTGCLSRVQFNQIAPLKAALRQTNASAHVHIQGELVESNCGASPLTLSPMSSATDPWHLDHLDSASADFPYNPGQGQAIRNGV
binding: binds

No constants are given. Whether binding was seen depends on the method and setting. Binding seen in cells or lysates may run through a third protein. A result given as binding can be weak or reduced; the word gives no strength. Tags and fused reporters may be left off the sequences shown.
